Data published in PMC10163288.
The other results are listed elsewhere or left out.

B1: il2ra_site1_2b5i_sap_16_mot_HHH_b2_01162_000000236_0001_22_38_H_._4004acc1088fa2ad3b456bbf002898ca_0001_af2_0001_0000400007_0000001_0_0001_af2pred_dldesign_0_af … (protein)
chain: SSSSSPEVEALLAEARAALAAGRLDEARRLLLEAAELAEEEDDRELLKEIIKELRRVELASSSSS
B2: il2ra_site1_3nfp_sap_7_mot_HHH_b2_02159_000000237_0001_1_17_H_._HHH_b1_04540_0001_0000700039_0000001_0_0001_af2pred_0001_af2pred (protein)
chain: PSRLVEEIIKLIRKGDPEAEELAKELEELAEELNDPRLEKVAELLLEAVKKGDKELLEKALQAAA
B3: il2ra_site1_3nfp_normal_mot_HHH_b2_05589_af2_000000060_0001_42_57_H_._HHH_b1_05883_0001_0000100002_0000001_0 (protein)
chain: SSSSSNQEIARLIDEAWRLKAEGNPEEAERVLEEALELARELGDELAERFIEELLRLIERSSSSS
B4: il2ra_site2_3nfp_sap_18_mot_HHH_b1_04960_000000149_0001_23_39_H_._HHH_b2_05326_0001_0000500024_0000001_0_0001 (protein)
chain: SSSSSSEEEIERLLEKLEELVRNNDEEEAEELSARISELIFELGNFELFAELLELSVALFSSSSS
B5: il2ra_site1_2b5i_normal_mot_HHH_b2_04910_000000118_0001_1_19_H_._HHH_b2_05364_af2_0001_0000500048_0000001_0_af2pred_dldesign_0_af2pred (protein)
chain: SSSSSPLTKKALELFLEANKLKQAGKEEEAKEKLEEALRLAKEAGSNSLVRILELALEQLESSSS
B6: il2ra_site1_3nfp_sap_15_mot_HHH_b1_07644_af2_000000110_0001_40_57_H_._HHH_b1_02888_0001_0000100006_0000001_0_0001 (protein)
chain: SSSDREELQRLAQEALELAFNGNPEEAQRVLEEALELAERLNDERAFRFIERLLRQIERFFSSSS
B7: il2ra_site2_3nfp_normal_mot_HHH_b1_04264_000000089_0001_1_18_H_._332cd829babfe32ea4315b179459513b_0001_1_0001_0000100003_0000001_0 (protein)
chain: SQEVFEVIHKLREEGDPELAISLFALLAELLLHPENEELREKLEELLEIIKKNPEEAREVARKLP
B8: il2ra_site2_3nfp_normal_mot_HHH_b1_06997_af2_000000208_0001_19_35_H_._HHH_b2_00218_0001_0000300039_0000001_0 (protein)
chain: SSSSSEREEYLEAAVALLEEALKEGDEEFARKLLELVKKLAEDAGDEEILERLEEIEEELSSSSS
B9: il2ra_site2_3nfp_normal_mot_HHH_b2_08245_000000023_0001_41_55_H_._HHH_b2_04266_af2_0001_0000100001_0000001_0 (protein)
chain: SSSSSDEEERRIEELIEEAREIEDPEEARKILAEATHLAYEARNSELFFAIAEVLFKLLSSSSSS
B10: il2ra_site1_1z92_normal_mot_b1fbee8209167eaadba3689d49187f1a_0001_1_af2_000000019_0001_16_31_H_._HHH_b2_06162_0001_0000500028_0000001_0_af2pred_0001_af2pred_1 (protein)
chain: SSSSDLEEEAEEIVREVVEKLGLDEQDKELLERDAEFSLRNGVSEKSVKLALELAAKAMHSSSSS
B11: il2ra_site2_2erj_sap_18_mot_HHH_b1_05537_000000062_0001_1_19_H_._HHH_b2_03360_0001_0000300015_0000001_0_0001 (protein)
chain: SSSSDEEEEEIRRLIEEARELLENGNPEEAYNVLARAALLALELGDEELFREISELFEKVYSSSS
B12: il2ra_site1_1z92_sap_18_mot_HHH_b1_01765_000000215_0001_19_35_H_._HHH_b1_01738_0001_0000300026_0000001_0_0001 (protein)
chain: SSSSDEQVERSLKRAVEIAVRMAGLSEEQKEELEKLAEELAERGVDFLEALRIVDELAVKLSSSS
B13: il2ra_site1_3nfp_sap_14_mot_HHH_b2_01814_000000033_0001_1_16_H_._HHH_b1_02934_af2_0001_0000300016_0000001_0_0001 (protein)
chain: SSSSSEEEEEVERLLEEAEEAIEEGDLEKALRLLQEAFRIAREAKDPELADLVYEVMRRIISSSS
B14: il2ra_site2_3nfp_normal_mot_HHH_b1_00660_af2_000000090_0001_40_57_H_._HHH_b2_00740_0001_0000100002_0000001_0_af2pred_0001_af2pred_1 (protein)
chain: SSSSDEELEREVERLLEEARHVDEEEAKKLLAEAAQLAYENNNFELFALVHEVLEELERRSSSSS
B15: il2ra_site1_3nfp_sap_26_mot_HHH_b1_06663_af2_000000234_0001_1_16_H_._HHH_b1_08000_af2_0001_0000100002_0000001_0_0001 (protein)
chain: SSSSSEIEEEVRELLEEIRRLLEEGDWEEALRLAEEVMRVAARGNDREAEKLIMEWNKRDSSSSS
B16: il2ra_site1_1z92_normal_mot_HHH_b2_05027_000000150_0001_42_56_H_._HHH_b2_03014_0001_0000400026_0000001_0 (protein)
chain: SSSSSSSEEWLEELVELVIKRSDDPEEQEELRRLLEELREEGDPELWLELAQLLIEIASSSSSSS
B17: il2ra_site1_2b5i_normal_mot_HHH_b1_02271_000000068_0001_1_16_H_._HHH_b1_00609_af2_0001_0000500024_0000001_0_af2pred_dldesign_0_af2pred (protein)
chain: SSSSAAKRARVEALKEEAKKLKDKREQLKALNEAYKLAGELGDEELEEELERLAREISLSSSSSS
B18: il2ra_site2_3nfp_sap_22_mot_HHH_b1_04960_000000149_0001_23_39_H_._HHH_b1_02593_af2_0001_0000200007_0000001_0_0001 (protein)
chain: SSSSNIEEAAEHLLKELRELGDEESVEELEHLLERLREEGDPKLEFELFALIAEIQNELLSSSSS
B19: il2ra_site1_2b5i_sap_7_mot_HHH_b1_06258_af2_000000112_0001_42_56_H_._HHH_b1_01955_af2_0001_0000100008_0000001_0_0001_af2pred_dldesign_0_af2pred (protein)
chain: SREELLAFIEKYAPPAAQKQARRLLDFGLSQGLPFEDILRALADYLARLTKDPSIREKCDAFLAK
B20: il2ra_site2_3nfp_normal_mot_HHH_b1_00660_af2_000000090_0001_40_57_H_._HHH_b1_05706_0001_0000200024_0000001_0 (protein)
chain: SSSSDEEKRELLEELRKIVENNDEEEFRRVVAEIAHLAYELNDFELFAALQELRELFARLSSSSS
B21: il2ra_site2_2erj_normal_mot_HHH_b2_01204_af2_000000056_0001_19_34_H_._HHH_b2_05536_af2_0001_0000300014_0000001_0 (protein)
chain: SSSSSEELEELYELAVKLLHLADEGDEEEFEKLAEELERLAEELQSDTVKEVVEYLQKLISSSSS
B22: il2ra_site1_3nfp_normal_mot_5dc7e7b25dc54f054fa2249576f850d6_0001_af2_000000143_0001_1_31_H_._fa9f4d8de626c23e570ee6a1132b7884_0001_af2_0001_0000300016_0000001_ … (protein)
chain: DIRELLEELIELNPERALRALERAVKAKGDPELRELLEEVRELLEEGNPEEAKELLKEAIKLAQP
B23: il2ra_site1_1z92_normal_mot_HHH_b2_00827_000000099_0001_20_37_H_._HHH_eva_0327_af2_0001_0000100007_0000001_0 (protein)
chain: SSEEELEELVEKIREVAEEKGDERLRRALERARFVLRELELGANSERAREIAEEAIKALYKTVVS
B24: il2ra_site1_2b5i_normal_mot_2cbe48e66a1f39b3fed734b245ab0a04_0001_000000015_0001_17_31_H_._HHH_b2_04843_0002_0000200006_0000001_0_af2pred_dldesign_0_af2pred (protein)
chain: SSSSSDPEAEFERLLAELRRAHAAGDDAAVDRLAFEAAFLAYRLKDEERLAEIEALYNALSSSSS
B25: il2ra_site1_2b5i_normal_mot_HHH_b1_05603_000000220_0001_1_17_H_._HHH_b2_02533_0001_0000100006_0000001_0_af2pred_dldesign_0_af2pred (protein)
chain: SSSSSSSRREVLLLANELYQKLEDEEKQDELYDLYTEFLKTRDPALAERIRAAAKELESSSSSSS
B26: il2ra_site2_3nfp_normal_mot_HHH_b1_02297_000000279_0001_41_58_H_._HHH_b2_07606_0001_0000500068_0000001_0_af2pred_0001_af2pred (protein)
chain: SSSSSSDDEELKEELKELLEEGDEEKLKKVVEEAAELAARLGDFELFALALQALKVLQSSSSSSS
B27: il2ra_site1_1z92_sap_20_mot_HHH_b1_07660_af2_000000114_0001_40_57_H_._HHH_b1_06241_0001_0000100001_0000001_0_0001 (protein)
chain: SEEEELEELLRELGVPPEDIEAIKRDFRRTKEFGFPPRDVLQAILNALERFGDPAAEVIEELLKK
B28: il2ra_site1_3nfp_normal_mot_HHH_b2_03322_af2_000000115_0001_43_57_H_._HHH_b1_01335_af2_0001_0000700010_0000001_0_af2pred_dldesign_0_af2pred (protein)
chain: SSSSSSSKAEEYLKKLEELKKEKNFKEFDKLYKEALRYAQENDDAELRAAVSALLREAASSSSSS
B29: il2ra_site1_2b5i_normal_mot_HHH_b1_08745_af2_000000166_0001_39_57_H_._HHH_b1_05027_0001_0000300017_0000001_0_af2pred_0001_af2pred (protein)
chain: SSSSSSEEVRELFEEANRLAREGDEEKAREVLEEAEELAERAGNPSLLRMVRAALRILESSSSSS
B30: il2ra_site1_3nfp_normal_mot_7f2fc9564206058543fe500fefea0e08_0001_000000219_0001_1_13_H_._HHH_b1_07406_af2_0001_0000400026_0000001_0_af2pred_0001_af2pred (protein)
chain: SSSSDKLKKALELAKRIQELLREGDPEEARELLEQLKELAEELNDEAAEILVKRLEKKINSSSSS
B31: il2ra_site1_3nfp_sap_18_mot_1dfc56a8f07a39e834a69883c800ee5d_0001_1_af2_000000099_0001_1_15_H_._HEEHE_0460_0001_0000400002_0000001_0_0001_af2pred_0001_af2pred_1 … (protein)
chain: SSSSSSEESEELLEKLEEALERGDVELALELARRIERLARKNDDQELLEAFWELIRRATSSSSSS
B32: il2ra_site2_2erj_normal_mot_HHH_b1_02713_af2_000000038_0001_1_19_H_._HHH_b2_05421_0001_0000500020_0000001_1 (protein)
chain: SSSSSLEEELIRHALLRAELLIEEGNEREARQVLESAEEYARLVGDEEVLERIQKLLEELSSSSS
B33: il2ra_site1_2b5i_normal_mot_HHH_b1_03148_af2_000000174_0001_43_57_H_._HHH_b2_06886_af2_0001_0000600032_0000001_0_1_af2pred_dldesign_0_af2pred (protein)
chain: SSSSSEKVEELDRLGSEAFRLSIKGKKEEFEKVAAEAIALAKELGSDKWVAELNYLKSKLSSSSS
B34: il2ra_site2_3nfp_sap_27_mot_6ba2120c21ebf0bdaaca7550098e1d96_0001_af2_000000030_0001_16_30_H_._HHH_b2_06425_0001_0000200015_0000001_0_0001 (protein)
chain: SSSSDEEEVEKLLEEARETLEEGDEEKALEILLEAAAVAARARNHELFAEVMAEAYKIVNSSSSS
B35: il2ra_site2_2erj_sap_28_mot_3b06bd03f1c6bceadc68eab912867b79_0001_000000296_0001_36_50_H_._HHH_b2_07081_0001_0000200005_0000001_0_0001 (protein)
chain: SSSDTEELAREAEEEARQLLEEGDPEQAFSLLAEALVRLAELNDEEAEKIVSKVSHEVYQRSSSS
B36: il2ra_site2_3nfp_sap_28_mot_HHH_b1_00050_000000292_0001_22_38_H_._2ddac98514d63a720a07c52076301d76_0001_af2_0001_0000400019_0000001_0_0001 (protein)
chain: SSSSDEEALRQDLLIAAERAKEKASEEEREELEELIRELEREGDPELAEELFALVAEILLSSSSS
B37: il2ra_site2_2erj_sap_22_mot_HHH_b1_04373_af2_000000118_0001_18_33_H_._HHH_b2_04240_af2_0001_0000300025_0000001_0_0001 (protein)
chain: SSSSDAAELLDEAFEEARRLFKNGDPEEAEEVLKKVLEELEELNDPDAVETLRLLIRFLRESSSS

Biological target: il2ra, P01589
Test: yeast display titration

Apparent Kd, inactive:
B1 no binding seen
B2 no binding seen
B3 no binding seen
B4 no binding seen
B5 no binding seen
B6 no binding seen
B7 no binding seen
B8 no binding seen
B9 no binding seen
B10 no binding seen
B11 no binding seen
B12 no binding seen
B13 no binding seen
B14 no binding seen
B15 no binding seen
B16 no binding seen
B17 no binding seen
B18 no binding seen
B19 > 3290 nM
B20 no binding seen
B21 no binding seen
B22 no binding seen
B23 no binding seen
B24 no binding seen
B25 > 238 nM
B26 no binding seen
B27 no binding seen
B28 no binding seen
B29 no binding seen
B30 no binding seen
B31 no binding seen
B32 no binding seen
B33 no binding seen
B34 no binding seen
B35 no binding seen
B36 no binding seen
B37 no binding seen

As a short view, some entries already given.
Apparent Kd, inactive:
B21 no binding seen
B22 no binding seen
